Experimental data published in paper PMC9513428.
These are yes or no findings as the source states them, for the method shown. Binding seen in cells or lysates may run through a third protein.

Chains of the proteins cited; added tags and fusions are not shown. Residues count along the entry.
UniProt Q15059, residues 24-416: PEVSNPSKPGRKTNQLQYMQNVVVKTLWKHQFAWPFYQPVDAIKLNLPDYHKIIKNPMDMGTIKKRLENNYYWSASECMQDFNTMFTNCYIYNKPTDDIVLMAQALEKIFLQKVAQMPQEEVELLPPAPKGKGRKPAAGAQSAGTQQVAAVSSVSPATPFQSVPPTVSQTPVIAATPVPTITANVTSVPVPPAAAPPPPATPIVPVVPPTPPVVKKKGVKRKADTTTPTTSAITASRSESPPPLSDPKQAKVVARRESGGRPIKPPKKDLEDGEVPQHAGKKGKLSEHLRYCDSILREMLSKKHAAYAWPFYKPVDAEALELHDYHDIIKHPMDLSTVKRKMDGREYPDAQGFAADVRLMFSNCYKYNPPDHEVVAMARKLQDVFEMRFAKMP
UniProt Q04206: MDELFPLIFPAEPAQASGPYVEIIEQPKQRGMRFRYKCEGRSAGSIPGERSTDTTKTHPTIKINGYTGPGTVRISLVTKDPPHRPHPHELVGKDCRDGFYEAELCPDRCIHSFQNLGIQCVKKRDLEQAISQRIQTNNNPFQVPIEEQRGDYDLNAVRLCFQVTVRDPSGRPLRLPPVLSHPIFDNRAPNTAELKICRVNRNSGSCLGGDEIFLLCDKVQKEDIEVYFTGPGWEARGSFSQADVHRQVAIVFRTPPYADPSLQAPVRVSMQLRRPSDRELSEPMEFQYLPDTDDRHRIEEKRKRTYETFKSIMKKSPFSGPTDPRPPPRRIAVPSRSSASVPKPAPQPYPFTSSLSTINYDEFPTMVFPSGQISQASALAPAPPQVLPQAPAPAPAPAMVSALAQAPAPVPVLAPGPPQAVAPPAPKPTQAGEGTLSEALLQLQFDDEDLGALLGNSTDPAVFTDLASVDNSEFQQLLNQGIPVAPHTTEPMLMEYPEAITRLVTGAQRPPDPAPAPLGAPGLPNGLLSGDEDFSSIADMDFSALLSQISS

Biological target: HaloTag-BRD3 tandem bromodomain construct (residues 24-416) (UniProt Q15059)
Assay: FRET or BRET; NanoBRET in living INS 832/13 cells co-transfected with the HaloTag construct (4 μg) and NanoLuc-p65 (0.4 μg); HaloTag ligand Janelia Fluor 585 100 nM, 18 h at 37°C; DMSO vehicle; read-out 610/450 nm ratio in milliBRET units

full-length NanoLuc-p65 (from UniProt Q04206 1-551)
binding: no binding
